Results from US10556994B2, “Strictly segmented thermoplastic elastomers as biodegradable biomaterials” (SyMO-Chem B.V., priority 2014, dated 2020).
Some entries share one result that the patent states for a list of compounds. For at least one compound, name, drawing or mass did not settle the structure.

Assay: Solubility in PBS of hard block degradation products
Type: physicochemical
Text: The variety of the biodegradation products of the [AB]n materials of this invention is limited, where this is due to the simple and defined molecular structures of the [AB]n materials with only one type of soft block A and only one type of hard block B for a particular [AB]n material. […] Degradation products from the hard block are lower molecular weight molecules such as the molecules shown in Examples 25 and 26 (not: molecules 26E, 26F, 26G).

SMILES: NCCCCNC(=O)NCCCCNC(=O)NCCCCN [Example 25F]
- solubility in PBS: > 5000 µg/mL
